Laboratory results taken from PMC5793130, “The Peptide PnPP-19, a Spider Toxin Derivative, Activates μ-Opioid Receptors and Modulates Calcium Channels” (Toxins, 2018).

System: calcium channels in dorsal root ganglion (DRG) neurons
Assay type: cell-based, rat

CN1CC[C@]23c4c5ccc(O)c4O[C@H]2[C@@H](O)C=C[C@H]3[C@H]1C5 [morphine]
effect on calcium current density: induced inhibition of calcium channels
